Test results: publication PMC10869800
Where two headings read alike, the source gives them in different places. No constants are given. Whether binding was seen depends on the method and setting. In cells and extracts the contact can be indirect. Here binding means that the protein was enriched with, or labelled near, the bait; the list need not be complete. Sequences can lack the tags named with a protein.

Chains of the proteins cited; added tags and fusions are not shown.
UniProt O14965: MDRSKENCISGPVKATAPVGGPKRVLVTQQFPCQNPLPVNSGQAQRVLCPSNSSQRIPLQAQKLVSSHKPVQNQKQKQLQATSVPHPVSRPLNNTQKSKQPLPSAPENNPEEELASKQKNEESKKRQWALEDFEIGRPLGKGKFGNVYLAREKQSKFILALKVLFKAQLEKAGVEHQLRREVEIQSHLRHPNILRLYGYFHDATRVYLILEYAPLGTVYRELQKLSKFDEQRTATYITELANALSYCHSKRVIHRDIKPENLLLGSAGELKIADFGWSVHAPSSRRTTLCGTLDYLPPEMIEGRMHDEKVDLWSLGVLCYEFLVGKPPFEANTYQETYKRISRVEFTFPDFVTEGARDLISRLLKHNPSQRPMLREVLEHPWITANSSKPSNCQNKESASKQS

B1: SIX1, endogenous (protein, UniProt Q15475 1-284)
chain: MSMLPSFGFTQEQVACVCEVLQQGGNLERLGRFLWSLPACDHLHKNESVLKAKAVVAFHRGNFRELYKILESHQFSPHNHPKLQQLWLKAHYVEAEKLRGRPLGAVGKYRVRRKFPLPRTIWDGEETSYCFKEKSRGVLREWYAHNPYPSPREKRELAEATGLTTTQVSNWFKNRRQRDRAAEAKERENTENNNSSSNKQNQLSPLEGGKPLMSSSEEEFSPPQSPDQNSVLLLQGNMGHARSSNYSLPGLTASQPSHGLQTHQHQLQDSLLGPLTSSLVDLGS

Legend:
Myc-BioID2-EYA4 (human) [1] = molecular target: T1, Myc-BioID2-EYA4 (human) (UniProt O95677); assay: proximity labelling; BioID2: Myc-BioID2-EYA4 against a BioID2-Myc control, transfected in 293T, 50 µM biotin for 24 h, streptavidin-coated Dynabeads, LC-MS/MS with label-free quantification
T1 sequence: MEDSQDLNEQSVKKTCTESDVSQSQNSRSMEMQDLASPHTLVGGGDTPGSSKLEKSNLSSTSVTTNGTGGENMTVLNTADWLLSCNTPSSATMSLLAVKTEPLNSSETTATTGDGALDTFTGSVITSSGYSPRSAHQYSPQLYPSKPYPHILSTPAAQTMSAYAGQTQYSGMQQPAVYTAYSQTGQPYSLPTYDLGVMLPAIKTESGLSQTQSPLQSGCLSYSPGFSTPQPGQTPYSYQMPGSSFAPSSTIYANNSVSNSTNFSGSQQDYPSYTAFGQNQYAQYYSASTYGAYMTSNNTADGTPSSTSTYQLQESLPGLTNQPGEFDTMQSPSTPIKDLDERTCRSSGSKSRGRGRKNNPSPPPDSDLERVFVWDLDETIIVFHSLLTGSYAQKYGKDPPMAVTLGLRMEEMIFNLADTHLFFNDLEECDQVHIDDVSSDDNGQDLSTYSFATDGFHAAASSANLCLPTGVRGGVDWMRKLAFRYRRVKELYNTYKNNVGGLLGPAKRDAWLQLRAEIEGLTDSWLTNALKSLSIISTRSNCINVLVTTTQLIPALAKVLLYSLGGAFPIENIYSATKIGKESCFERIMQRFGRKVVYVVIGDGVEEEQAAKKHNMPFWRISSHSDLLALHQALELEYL

Myc-BioID2-EYA4 (human) [2] = molecular target: T1, Myc-BioID2-EYA4 (human); assay: as above; remark: listed apart in the source

| Molecule | binding (Myc-BioID2-EYA4 (human) [1]) | binding (Myc-BioID2-EYA4 (human) [2]) |
| --- | --- | --- |
| Polo-like kinase 1 (PLK1), endogenous (from UniProt P53350 1-603) | binds | – |
| Aurora kinase A (AURKA), endogenous (from UniProt O14965 1-403) | binds | – |
| B1 | – | binds |
